Molecular target: T1, hTLR8 (Homo sapiens, UniProt Q9NR97)
T1 construct: expressed in transfected cells; host or cells: HEK293
T1 sequence (Q9NR97 27-1041): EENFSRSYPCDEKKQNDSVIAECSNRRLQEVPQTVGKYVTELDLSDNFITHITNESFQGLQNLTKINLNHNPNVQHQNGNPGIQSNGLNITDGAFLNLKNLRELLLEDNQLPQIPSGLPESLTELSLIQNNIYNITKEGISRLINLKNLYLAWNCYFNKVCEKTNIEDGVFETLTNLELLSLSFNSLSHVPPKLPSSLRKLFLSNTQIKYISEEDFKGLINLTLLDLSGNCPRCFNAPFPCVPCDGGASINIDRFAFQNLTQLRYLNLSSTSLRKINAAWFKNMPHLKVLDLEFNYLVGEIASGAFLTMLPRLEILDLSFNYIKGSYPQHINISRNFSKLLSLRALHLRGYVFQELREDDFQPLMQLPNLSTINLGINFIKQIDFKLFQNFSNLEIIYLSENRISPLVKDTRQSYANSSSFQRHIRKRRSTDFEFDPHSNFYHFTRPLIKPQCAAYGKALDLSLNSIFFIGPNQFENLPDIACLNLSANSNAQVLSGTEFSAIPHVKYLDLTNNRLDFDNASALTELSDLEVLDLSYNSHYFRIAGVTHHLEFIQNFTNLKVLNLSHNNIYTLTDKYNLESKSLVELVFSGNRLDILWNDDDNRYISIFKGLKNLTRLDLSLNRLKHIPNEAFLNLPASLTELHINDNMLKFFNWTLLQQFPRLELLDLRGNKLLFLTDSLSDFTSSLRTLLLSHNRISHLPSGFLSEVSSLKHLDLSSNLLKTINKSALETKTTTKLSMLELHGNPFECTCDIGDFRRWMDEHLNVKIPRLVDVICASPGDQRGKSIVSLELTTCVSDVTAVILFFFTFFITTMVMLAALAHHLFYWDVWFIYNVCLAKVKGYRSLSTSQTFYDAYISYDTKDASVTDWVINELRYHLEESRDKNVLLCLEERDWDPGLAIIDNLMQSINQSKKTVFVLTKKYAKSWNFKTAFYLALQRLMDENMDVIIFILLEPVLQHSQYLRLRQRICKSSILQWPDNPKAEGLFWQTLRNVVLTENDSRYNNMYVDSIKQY
Assay: Human TLR/NLR agonist screening: NF-κB activation in HEK293 cells expressing hTLR8
Assay type: cell-based
Conditions: agonist mode; Control+ = CL075 1 μg/mL
Source text: The media added to the wells was designed for the detection of NF-κB induced SEAP expression.

SMILES: CCCc1nc2c(N)nc3ccccc3c2s1 [CL075]
- Fold induction (ratio of average induced value to average non-induced value): 19

Source: patent US20220233469A1, “METHODS, COMPOSITIONS AND DEVICES FOR TREATING NEUROINFLAMMATORY CONDITIONS” (ALYRA BIOTECH PTY LTD, priority 2019, published 2022)
